Results of single-concentration screens

Source: ChEMBL document CHEMBL3988442, “University of Dundee, Small-Polar-MMV Screening Library” (2021).

Each number is a percent effect as filed. The record does not define 0% and 100%; most values in the screen are far below 50% and negative numbers occur (in some assays of this library far below -100). Compounds were drawn at random from those tested, without regard to their results.

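Growth of Mycobacterium tuberculosis over 3 days (7H9 medium with glucose and tyloxapol); the read-out is not stated. Concentration: 500 µM. Direction is inferred from retests: higher values go with more growth inhibition. About 18,000 compounds were tested under these conditions; 7.9% (about 1,400) showed 50% or more at least once.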

For CS(=O)(=O)c1ccc(NC(=O)c2cnsn2)cc1 the result was 6.926%. O=C(CCNC(=O)c1cc[nH]n1)NC1CCCCC1 gave 9.511%. Result for NC(=O)CCSCc1csc(-c2ccco2)n1 was 41.77%. Result for CC(C)CC(C)(N)CN (stereo not given) was 8.325%. Cc1ccc(CNC(=O)c2ccc(S(C)(=O)=O)cc2)s1 gave -0.3142%. With CC1CCCN(C(=O)CN2CCC(O)CC2)C1 (stereo not given) the screen gave 7.706%. CC1CCN(CCNC(=O)c2cnccn2)CC1 read -5.934%. With Cn1nnnc1SCCNCc1ccc(Br)cc1 the screen gave 78.24%.

For O=S1(=O)CCN(c2ccnc3ccccc23)CC1 the result was -8.687%. Result for COC(=O)N1CCCC(NC(=O)N2CCC2)C1 (stereo not given) was 4.214%. Result for CCN(CC)C(=O)Cn1nc(C)c(C#N)c1N was 2.624%. Result for CS(=O)(=O)CCC(=O)N1C[C@H](C2CC2)[C@@H](N)C1 was 8.595%. For O=C(Cc1noc2ccccc12)OC1CCOC1=O (stereo not given) the result was 3.423%. CC(C)n1nccc1NC(=O)CNC(=O)c1cccs1 gave 7.134%. Result for Cc1cc(C)nc(NCC2(CS(C)(=O)=O)CC2)n1 was 9.474%. For Cc1cccc(NC(=O)c2cccnc2O)n1 the result was 6.989%.

Result for OC1(Cn2ccnn2)CCNC1 (stereo not given) was -4.374%. CC(C)c1cc(C(=O)N2CC(c3ccccn3)C2)no1 read 74.92%. Result for Cc1[nH]c(C(C)(C)N)nc(=O)c1C was 3.784%. With COc1ccc(OCCCC(=O)NCCN(C)C)cc1 the screen gave 9.933%. With CCN(CC)C(=O)NCC(O)c1ccsc1 (stereo not given) the screen gave 4.488%. CC(=O)NC(C)C(=O)NCc1ccc(C)c(F)c1 (stereo not given) gave 30.47%. For CN(C)Cc1ccc(C(=O)NCC2(C)COC2)cc1 the result was 11.97%. Result for NCCC1(O)C(=O)Nc2ccccc21 (stereo not given) was 20.66%.

With CN(C)C(=O)C1OCCc2ccccc21 (stereo not given) the screen gave -2.755%. Cc1cc(=O)cc(C(=O)NCCCc2ccncc2)o1 gave -8.708%. Result for CCC(CN)N1CCc2ccccc2C1 (stereo not given) was 0.3852%. CCCn1cc(C(=O)NCC(F)(F)F)c(C)n1 gave 11.52%. For COCCN1CCNCC1=O the result was -12.87%. With Nc1n[nH]c(SCC(=O)N2CCc3sccc3C2)n1 the screen gave 23.58%. Result for O=C(CCCc1ccccc1)NCc1ccccn1 was 65.64%. Result for NC1CCC(=O)NC1 (stereo not given) was -18.98%.

With COc1ccc(C(=O)N2C[C@@H](CO)[C@H](N(C)C)C2)cn1 the screen gave -0.8856%. CC(=O)Nc1ccccc1C=CBr read 9.802%. For CNC(=O)Cc1csc(-c2ccc(OC)c(OC)c2)n1 the result was -7.134%. For CN(Cc1ccc2c(c1)OCO2)S(=O)(=O)c1cccs1 the result was 32.9%. NCCCNCCCN gave -18.95%. NC1(c2nc(-c3ccccc3)c[nH]2)CCCC1 gave 63.06%. For Cc1nnc(SCCCNC(=O)c2csnn2)s1 the result was 1.969%. CN(C)C1CCN(CC(=O)NCCn2cnnn2)C1 (stereo not given) gave 2.353%.

For COCC(=O)NCC(c1ccsc1)N(C)C (stereo not given) the result was 6.673%. Cc1cc(NC(=O)NCc2ccoc2)n(C)n1 read 13.4%. CC(=O)c1ccc2[nH]c(=O)oc2c1 gave -8.709%. Cc1n[nH]cc1NC(=O)NCC(c1cccs1)N(C)C (stereo not given) read 3.03%. For CC1(C)CS(=O)(=O)CCN1 the result was 1.848%. Result for CCSc1ccc(C(=O)NCCc2nnc[nH]2)cn1 was -3.143%. For COCc1noc(C(C)N2CCC(C)(C)C2)n1 (stereo not given) the result was 23.53%. For O=C(CNc1cccc2ccccc12)N1CCNC1=O the result was 38.42%.

With Cc1cc(C(=O)NCC(C)c2nc(C)cs2)nc(N)n1 (stereo not given) the screen gave 44.67%. For CS(=O)(=O)CCC1CCCCN1 (stereo not given) the result was 3.564%. With Cc1ccsc1CN(C)C(=O)C(CN)c1ccccc1 (stereo not given) the screen gave 5.283%. For COc1ccc(N(C)CCCO)cc1OC the result was 12.85%. Result for Cc1cc(O)nc(N2CCCCC2)n1 was 4.171%. COCC(=O)NC1CCN(c2ccccc2)C1=O (stereo not given) read 11.03%. Result for Cc1c[nH]c(CN(C)CC2(CO)CCOCC2)n1 was 20.68%. NC(=O)CN(CCc1ccncc1)Cc1ccccc1 read 41.29%.

CCOC(=O)c1cnn(-c2ccc(Br)cn2)c1N read -4.694%. With C=C(C)CN1CCC(NC(=O)N2CCSCC2)CC1 the screen gave 5.958%. CC(C)(C)OC(=O)NCCCOC1CCNCC1 gave -8.482%. CCNC(=O)CC1CCCCN1 (stereo not given) read -13.7%. CCCOc1cc(CNC(=O)c2csnc2C)ccn1 gave 67.38%. [O-][S+]1CCN(c2ccnc3ccc(Cl)cc23)CC1 gave -9.267%. N[C@H]1CN(C(=O)CCCn2ccnc2)C[C@@H]1C1CC1 read 10.54%. For Cc1ccc2cccc(OCC(C)CS(C)(=O)=O)c2n1 (stereo not given) the result was -2.807%.

Result for CC(OC(=O)CNC(=O)C1CC1)C1CC1 (stereo not given) was 19.52%. CC(C(N)=O)S(=O)(=O)c1ncccc1Cl (stereo not given) gave 5.009%. Result for OCC(O)CNc1cc(C(F)(F)F)nc2ccccc12 (stereo not given) was 31.59%. Result for CCn1ccnc1CNC(=O)c1ccc2c(c1)CCO2 was -1.81%. Result for Cc1cc(NC(=O)CN2CCC(C(N)=O)CC2)n(C)n1 was 0.8997%. Result for CN(CC(=O)N1CCCC(C(F)(F)F)C1)S(C)(=O)=O (stereo not given) was 8.708%. Result for CN1CCN(CC(O)CN(C)c2ccccn2)CC1 (stereo not given) was 8.602%.